± gives the standard error. The uncertainty is large for many entries.
B1: glmS ribozyme (parent)
chain: AUAAAAGCGCCAGAACUACAGAAAUGUAGUUGACGAGGAGGAGGUUUAUCGAAUUUUCGGCGGAUGCCUCCAAA

Variants of: B1
Assay: self-cleavage kobs at 640 uM GlcN6P; higher = faster cleavage; RNA array
Conditions: with glucosamine-6-phosphate
In short: (§1)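 Tracking of barcoded ribozyme variants used a hybridised Cy3 probe at 37 °C, after in situ transcription by E. coli RNA polymerase on sequenced MiSeq chips. The flowed solution held 40 μM to 10 mM glucosamine-6-phosphate in HEPES/KCl/Mg(OAc)2 buffer, and imaging ran over ~14 h. kobs was taken from exponential decay fits of normalised per-tile medians, and kcat and KM from weighted Michaelis–Menten fits.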

Variant	self-cleavage kobs at 640 uM GlcN6P [s⁻¹]
G38U G59C U69G	4.12e-05 ± 2.4e-05
A14U A33G A52G C68U C70G C71A	5.49e-05 ± 4.5e-05
C34U G38U C50G	1.85e-05 ± 1.8e-05
A6C U49A C71G	4.45e-05 ± 2.7e-05
A14G A42G A52U	3.81e-05 ± 3.3e-05
A33U C71G	1.69e-05 ± 1.6e-05
G7A A14G G38A G44C A52G C67G	4.16e-05 ± 2.9e-05
C10U C16G C68G	3.57e-05 ± 2.7e-05
G29U G38C C58G C68A C71A	5.98e-05 ± 4e-05
G43A U54G	2.3e-05 ± 1.4e-05
C8U A15U U46G C50G C71U	1.6e-05 ± 1.6e-05
C16A A36C G51A A53U U69G	0.000755 ± 0.00052
C11U A48G C68G	0.00087 ± 0.00047
A53G A64U C67A	2.95e-05 ± 2.4e-05
C61G U69A	3.11e-05 ± 1.7e-05
A12G A53U C67U	2.71e-05 ± 1.9e-05
C10U G32A C70U	3.51e-05 ± 2.7e-05
A15U C16G C58A	3.41e-05 ± 1.9e-05
C10A G43U	0.00365 ± 0.003

Variant	self-cleavage kobs at 640 uM GlcN6P [s⁻¹]
G62U C70A	2.03e-05 ± 1.8e-05
A14C U30G A42G A53C	2.91e-05 ± 1.6e-05
G32A U69A	1.72e-05 ± 1.3e-05
A12C A14U A53C	5.48e-05 ± 3.9e-05
U55A C61A C68A	2.94e-05 ± 2.8e-05
U46C C58G	3.56e-05 ± 2.7e-05
C16A C50U U56C C58U U65A C71A	5.68e-05 ± 3.1e-05
A6C A42G	2.12e-05 ± 1.6e-05
G59C U69G	2.28e-05 ± 1.7e-05
G9U C11G G29U G63C C70U	3.07e-05 ± 2.5e-05
U31A A48G	1.83e-05 ± 1.7e-05
G13U C50U G60A C70G	3.59e-05 ± 3.5e-05
G32A G44C C67U	1.75e-05 ± 1.7e-05
U57A C70A	2.26e-05 ± 2.3e-05
A39C G43U C68U	1.65e-05 ± 1.6e-05
G59U U69A	2.41e-05 ± 1.7e-05
A14G C50A A64U C70U	4.59e-05 ± 2.4e-05
C11A A15U	2.34e-05 ± 1.9e-05
U31C A36C U54G A64G C70A	4.3e-05 ± 3.6e-05

A different layout for part of the listing above:

| Variant | self-cleavage kobs at 640 uM GlcN6P [s⁻¹] |
| --- | --- |
| A33U C71G | 1.69e-05 ± 1.6e-05 |
| G7A A14G G38A G44C A52G C67G | 4.16e-05 ± 2.9e-05 |
| C10U C16G C68G | 3.57e-05 ± 2.7e-05 |

(continued)

Variant	self-cleavage kobs at 640 uM GlcN6P [s⁻¹]
G37A A42C	2.63e-05 ± 2.4e-05
C11A G38A C67G	3.42e-05 ± 2e-05
G29U G32A A53C	2.03e-05 ± 1.5e-05
A12C G43A	2.28e-05 ± 1.2e-05
G29U C68G	2.58e-05 ± 1.5e-05
G29A G63C C68G	5.51e-05 ± 4.8e-05
C16A G59A C70G	3.23e-05 ± 3e-05
C50U G51U C61A	2.75e-05 ± 2.6e-05
G38U C50G	3.04e-05 ± 1.9e-05
A15C C68G	2.28e-05 ± 1.4e-05
G13C A53U	1.12e-05 ± 1e-05
A52C C70G C71G	2.9e-05 ± 2.1e-05
U49A C50U C68U	3.99e-05 ± 3.3e-05
C8G C10G G13C C58G C68G	0.00285 ± 0.0016
C58G U65G C70G	3.72e-05 ± 2.3e-05
G37U A48U C70G	3.63e-05 ± 2.3e-05
G40A G43C U47C C50G U65C	5.22e-05 ± 4.3e-05
C10U C67G	1.76e-05 ± 1.3e-05

Variants of: B1
Assay: self-cleavage kobs at 160 uM GlcN6P; higher = faster cleavage; RNA array
Conditions: with glucosamine-6-phosphate
In short: as §1

Variant	self-cleavage kobs at 160 uM GlcN6P [s⁻¹]
G38U G59C U69G	2.57e-05 ± 2.5e-05
G29C C68G	3.06e-05 ± 2.2e-05
C8U G32U C34U U49G G60A C70G	3.59e-05 ± 2.6e-05
A15G G29U C70G	9.13e-05 ± 4.8e-05
C34G U56G C70U	2.57e-05 ± 2.1e-05
U55A C58A	1.68e-05 ± 1.1e-05
A15G C61U C68A	2.38e-05 ± 2.3e-05
C10U C68G	1.84e-05 ± 9.5e-06
C10U C16G C68G	3.41e-05 ± 2.3e-05
A12C U54G C68G	6.54e-05 ± 3.7e-05
A53C U57A U69A	2.65e-05 ± 2.3e-05
A42U C67U	1.57e-05 ± 1.2e-05
G37U C68A	2.38e-05 ± 1.5e-05
U31A U56G C58G	3.01e-05 ± 2e-05
C61G U69A	2.26e-05 ± 1.6e-05
G29A U65A	1.97e-05 ± 1.6e-05
U46A C70A	2.02e-05 ± 1.9e-05
C11U A14U C16U G32A G38U A53U C61U A64C	5.57e-05 ± 3.2e-05
U56A C58U G59A C67G	4.15e-05 ± 3.5e-05

Variant	self-cleavage kobs at 160 uM GlcN6P [s⁻¹]
A12C A64G	4.27e-05 ± 2.2e-05
U57A C70A	3.29e-05 ± 2.5e-05
A12C G44A	1.9e-05 ± 1.6e-05
A14G C50A A64U C70U	2.85e-05 ± 2.5e-05
G32C G51U C70A	3.39e-05 ± 2.8e-05
G51U C71A	2.3e-05 ± 2.1e-05
C11A G38A C67G	2.76e-05 ± 2.1e-05
G44A U45A	3.27e-05 ± 1.7e-05
U30A G66U	2.11e-05 ± 1.5e-05
G29U C68G	2.25e-05 ± 1.5e-05
G38U C50G	3.52e-05 ± 2.3e-05
A14U U30G G40A	4.08e-05 ± 2.3e-05
A12U U30A	0.00214 ± 0.0012
A39U A48U	2.7e-05 ± 1.7e-05
A6U C34G U47G C67U C68A	5.48e-05 ± 3.1e-05
G40U A52G	2.59e-05 ± 1.8e-05
U65G U69A	3.5e-05 ± 2e-05
G29A G40C	2.62e-05 ± 2.2e-05

Taken from above for reference:
Variant	self-cleavage kobs at 160 uM GlcN6P [s⁻¹]
C11U A14U C16U G32A G38U A53U C61U A64C	5.57e-05 ± 3.2e-05
U56A C58U G59A C67G	4.15e-05 ± 3.5e-05
A12C A64G	4.27e-05 ± 2.2e-05
U57A C70A	3.29e-05 ± 2.5e-05

Variants of: B1
Assay: self-cleavage kobs at 2500 uM GlcN6P; higher = faster cleavage; RNA array
Conditions: with glucosamine-6-phosphate
In short: as §1

Variant	self-cleavage kobs at 2500 uM GlcN6P [s⁻¹]
G38U G59C U69G	5.19e-05 ± 3.9e-05
G29C U30A A42G	4.82e-05 ± 3.1e-05
C8A G62U	1.54e-05 ± 1.5e-05
C50G C67G	1.36e-05 ± 8.5e-06
G13C C67A	1.62e-05 ± 1.2e-05
C10U C16G C68G	2.72e-05 ± 2.5e-05
A6C U56G	1.93e-05 ± 1.7e-05
U30A C50A C67A C70G	3.5e-05 ± 2.2e-05
A15G A42C	2.01e-05 ± 1.6e-05
C16U A33U C71G	3.58e-05 ± 2.3e-05
G37U C68A	1.66e-05 ± 1.5e-05
A36U G51A A52U C68A C70U	0.000115 ± 6.8e-05
A15U G21U U47A C67A C68U	3.37e-05 ± 2.2e-05
A14G C16U U46C	0.00449 ± 0.0025
U45G U47C	0.000586 ± 0.00054
A48G C58A	3.26e-05 ± 2.1e-05
C16A A36C G51A A53U U69G	0.000127 ± 7.4e-05
A53G A64U C67A	4.59e-05 ± 2.6e-05
C61G U69A	2.39e-05 ± 1.9e-05
A12C U57G	3.35e-05 ± 1.9e-05
A12U C50U C71A	3.26e-05 ± 2.1e-05
A12U A53U C71U	0.0578 ± 0.051
A6G U30A C50G U55G	6.4e-05 ± 3.3e-05
G21C G44A C71U	3e-05 ± 1.9e-05
C50A A53C G63U C68G	4.14e-05 ± 3e-05
C11A U69G	6.07e-05 ± 4.5e-05

Variant	self-cleavage kobs at 2500 uM GlcN6P [s⁻¹]
C16A A33U	1.7e-05 ± 1.3e-05
U46C C58G	1.25e-05 ± 1.2e-05
A14C C61U C68G	3.25e-05 ± 2.5e-05
C16A U46G C70G	2.27e-05 ± 1.7e-05
U57A C70A	1.95e-05 ± 1.2e-05
A33U G41A U54G	1.72e-05 ± 1.7e-05
C10G G38U U49G C58G A64C U65A C67U C68U	4.75e-05 ± 2.5e-05
U31C G37U G59U G60C	0.00129 ± 0.00077
G32C G51U C70A	3.74e-05 ± 3.6e-05
C11A G38A C67G	0.000276 ± 0.00019
A14G C61U C70U	2.12e-05 ± 1.4e-05
G29U G51A C68G	3.17e-05 ± 2.6e-05
A33U U46C	2.48e-05 ± 2.3e-05
C16G G29U A33C A39U	3.94e-05 ± 2.6e-05
A12U U30A	0.0895 ± 0.069
G40C U46C U56C	2.56e-05 ± 1.6e-05
A15C G40A U49G C71U	3.15e-05 ± 2.2e-05
A14C C50G G62C	4.55e-05 ± 2.7e-05
A6C A14U A15U C50G U56C	3.63e-05 ± 2.7e-05
U30G C68A	2.44e-05 ± 1.8e-05
C58G U65G C70G	2.65e-05 ± 2.5e-05
G7U G63A	2.57e-05 ± 2.2e-05
G32A U69A C70G	2.32e-05 ± 2.1e-05
G40A G43C U47C C50G U65C	2.76e-05 ± 2.7e-05
G40U U46A G66U	3.92e-05 ± 2e-05
G41A U54G C58G C70U	1.88e-05 ± 1.7e-05

Variants of: B1
Assay: self-cleavage kobs at 40 uM GlcN6P; higher = faster cleavage; RNA array
Conditions: with glucosamine-6-phosphate
In short: as §1

Variant	self-cleavage kobs at 40 uM GlcN6P [s⁻¹]
G38U G59U C68G	3.38e-05 ± 2.3e-05
C50G C67G	1.59e-05 ± 1.1e-05
A6G A14G	1.35e-05 ± 1.2e-05
U47G C71G	1.04e-05 ± 8.6e-06
G29U G38C C58G C68A C71A	4.64e-05 ± 3.1e-05
G7U G13C C70G	3.57e-05 ± 2.8e-05
A15G A52G	2.18e-05 ± 1.7e-05
C16A G38U C67G	3.59e-05 ± 2.6e-05
C11A U69C	2.92e-05 ± 2.6e-05
G29A A52G C67G	3.69e-05 ± 2e-05
C16A C67U	2.35e-05 ± 1.6e-05
C11U G29C C50G C68G	2.13e-05 ± 1.3e-05
U30A U47G A53G	2.28e-05 ± 1.4e-05
U30C A39G	2.23e-05 ± 2.2e-05
C50G U57C	1.76e-05 ± 1.7e-05
U47A U65G G66U	3.3e-05 ± 1.9e-05
G37A U46C	1.58e-05 ± 1.2e-05
G32C G51U C70A	4.46e-05 ± 2.3e-05
C70G C71A	2.39e-05 ± 1.6e-05
G9A A33C C50G A52G G59U C71A	4.2e-05 ± 3.3e-05
G7A C8G G9C C10G A12C G13A A14G C16A U17C C67G	2.42e-05 ± 1.9e-05
G38U C50G	2.69e-05 ± 1.4e-05
A52G U54G	2.78e-05 ± 1.5e-05
G29C C50G C61U	4.42e-05 ± 3.1e-05
C8A G63U U69A	3.53e-05 ± 3e-05
A14U U49A C50G C61A	4.14e-05 ± 3e-05
C50A C67U C68U	2.75e-05 ± 2.1e-05
C8A U30C G38A U47A U69A	7.01e-05 ± 3.7e-05
G37A C67U	2.48e-05 ± 1.4e-05
C50G C58U U65C	3.27e-05 ± 2.2e-05

Variants of: B1
Assay: self-cleavage kobs at 10000 uM GlcN6P; higher = faster cleavage; RNA array
Conditions: with glucosamine-6-phosphate
In short: as §1

Variant	self-cleavage kobs at 10000 uM GlcN6P [s⁻¹]
G29C C68G	1.61e-05 ± 1.3e-05
C50G C67G	1.09e-05 ± 9.9e-06
C11U A48G C68G	0.000714 ± 0.00049
C10U G32A C70U	1.66e-05 ± 1.5e-05
C16A G38U C67G	2.29e-05 ± 2.2e-05
G29U C68G	1.86e-05 ± 1.3e-05
A33U U46C	2.07e-05 ± 1.3e-05
G38U C50G	1.92e-05 ± 1.3e-05
G29C C50G C61U	3.24e-05 ± 1.8e-05
